Construct, isoform or probe ends are uncertain for at least one entry.
Biological target: mini-vRNAP K670A K670A (mini-vRNAP numbering, residue 707 of SEQ 6) (Bacteriophage N4) (UniProt Q859P9)
Test: binding assay
Conditions: purified recombinant protein, protein details: N-terminal His6, label: 32P end, single-stranded DNA

The chains behind the UniProt entries cited, without tags or fusion partners. Where a name states a change or a piece, a line headed by the entry shows the natural chain unless it says otherwise.
UniProt Q859P9: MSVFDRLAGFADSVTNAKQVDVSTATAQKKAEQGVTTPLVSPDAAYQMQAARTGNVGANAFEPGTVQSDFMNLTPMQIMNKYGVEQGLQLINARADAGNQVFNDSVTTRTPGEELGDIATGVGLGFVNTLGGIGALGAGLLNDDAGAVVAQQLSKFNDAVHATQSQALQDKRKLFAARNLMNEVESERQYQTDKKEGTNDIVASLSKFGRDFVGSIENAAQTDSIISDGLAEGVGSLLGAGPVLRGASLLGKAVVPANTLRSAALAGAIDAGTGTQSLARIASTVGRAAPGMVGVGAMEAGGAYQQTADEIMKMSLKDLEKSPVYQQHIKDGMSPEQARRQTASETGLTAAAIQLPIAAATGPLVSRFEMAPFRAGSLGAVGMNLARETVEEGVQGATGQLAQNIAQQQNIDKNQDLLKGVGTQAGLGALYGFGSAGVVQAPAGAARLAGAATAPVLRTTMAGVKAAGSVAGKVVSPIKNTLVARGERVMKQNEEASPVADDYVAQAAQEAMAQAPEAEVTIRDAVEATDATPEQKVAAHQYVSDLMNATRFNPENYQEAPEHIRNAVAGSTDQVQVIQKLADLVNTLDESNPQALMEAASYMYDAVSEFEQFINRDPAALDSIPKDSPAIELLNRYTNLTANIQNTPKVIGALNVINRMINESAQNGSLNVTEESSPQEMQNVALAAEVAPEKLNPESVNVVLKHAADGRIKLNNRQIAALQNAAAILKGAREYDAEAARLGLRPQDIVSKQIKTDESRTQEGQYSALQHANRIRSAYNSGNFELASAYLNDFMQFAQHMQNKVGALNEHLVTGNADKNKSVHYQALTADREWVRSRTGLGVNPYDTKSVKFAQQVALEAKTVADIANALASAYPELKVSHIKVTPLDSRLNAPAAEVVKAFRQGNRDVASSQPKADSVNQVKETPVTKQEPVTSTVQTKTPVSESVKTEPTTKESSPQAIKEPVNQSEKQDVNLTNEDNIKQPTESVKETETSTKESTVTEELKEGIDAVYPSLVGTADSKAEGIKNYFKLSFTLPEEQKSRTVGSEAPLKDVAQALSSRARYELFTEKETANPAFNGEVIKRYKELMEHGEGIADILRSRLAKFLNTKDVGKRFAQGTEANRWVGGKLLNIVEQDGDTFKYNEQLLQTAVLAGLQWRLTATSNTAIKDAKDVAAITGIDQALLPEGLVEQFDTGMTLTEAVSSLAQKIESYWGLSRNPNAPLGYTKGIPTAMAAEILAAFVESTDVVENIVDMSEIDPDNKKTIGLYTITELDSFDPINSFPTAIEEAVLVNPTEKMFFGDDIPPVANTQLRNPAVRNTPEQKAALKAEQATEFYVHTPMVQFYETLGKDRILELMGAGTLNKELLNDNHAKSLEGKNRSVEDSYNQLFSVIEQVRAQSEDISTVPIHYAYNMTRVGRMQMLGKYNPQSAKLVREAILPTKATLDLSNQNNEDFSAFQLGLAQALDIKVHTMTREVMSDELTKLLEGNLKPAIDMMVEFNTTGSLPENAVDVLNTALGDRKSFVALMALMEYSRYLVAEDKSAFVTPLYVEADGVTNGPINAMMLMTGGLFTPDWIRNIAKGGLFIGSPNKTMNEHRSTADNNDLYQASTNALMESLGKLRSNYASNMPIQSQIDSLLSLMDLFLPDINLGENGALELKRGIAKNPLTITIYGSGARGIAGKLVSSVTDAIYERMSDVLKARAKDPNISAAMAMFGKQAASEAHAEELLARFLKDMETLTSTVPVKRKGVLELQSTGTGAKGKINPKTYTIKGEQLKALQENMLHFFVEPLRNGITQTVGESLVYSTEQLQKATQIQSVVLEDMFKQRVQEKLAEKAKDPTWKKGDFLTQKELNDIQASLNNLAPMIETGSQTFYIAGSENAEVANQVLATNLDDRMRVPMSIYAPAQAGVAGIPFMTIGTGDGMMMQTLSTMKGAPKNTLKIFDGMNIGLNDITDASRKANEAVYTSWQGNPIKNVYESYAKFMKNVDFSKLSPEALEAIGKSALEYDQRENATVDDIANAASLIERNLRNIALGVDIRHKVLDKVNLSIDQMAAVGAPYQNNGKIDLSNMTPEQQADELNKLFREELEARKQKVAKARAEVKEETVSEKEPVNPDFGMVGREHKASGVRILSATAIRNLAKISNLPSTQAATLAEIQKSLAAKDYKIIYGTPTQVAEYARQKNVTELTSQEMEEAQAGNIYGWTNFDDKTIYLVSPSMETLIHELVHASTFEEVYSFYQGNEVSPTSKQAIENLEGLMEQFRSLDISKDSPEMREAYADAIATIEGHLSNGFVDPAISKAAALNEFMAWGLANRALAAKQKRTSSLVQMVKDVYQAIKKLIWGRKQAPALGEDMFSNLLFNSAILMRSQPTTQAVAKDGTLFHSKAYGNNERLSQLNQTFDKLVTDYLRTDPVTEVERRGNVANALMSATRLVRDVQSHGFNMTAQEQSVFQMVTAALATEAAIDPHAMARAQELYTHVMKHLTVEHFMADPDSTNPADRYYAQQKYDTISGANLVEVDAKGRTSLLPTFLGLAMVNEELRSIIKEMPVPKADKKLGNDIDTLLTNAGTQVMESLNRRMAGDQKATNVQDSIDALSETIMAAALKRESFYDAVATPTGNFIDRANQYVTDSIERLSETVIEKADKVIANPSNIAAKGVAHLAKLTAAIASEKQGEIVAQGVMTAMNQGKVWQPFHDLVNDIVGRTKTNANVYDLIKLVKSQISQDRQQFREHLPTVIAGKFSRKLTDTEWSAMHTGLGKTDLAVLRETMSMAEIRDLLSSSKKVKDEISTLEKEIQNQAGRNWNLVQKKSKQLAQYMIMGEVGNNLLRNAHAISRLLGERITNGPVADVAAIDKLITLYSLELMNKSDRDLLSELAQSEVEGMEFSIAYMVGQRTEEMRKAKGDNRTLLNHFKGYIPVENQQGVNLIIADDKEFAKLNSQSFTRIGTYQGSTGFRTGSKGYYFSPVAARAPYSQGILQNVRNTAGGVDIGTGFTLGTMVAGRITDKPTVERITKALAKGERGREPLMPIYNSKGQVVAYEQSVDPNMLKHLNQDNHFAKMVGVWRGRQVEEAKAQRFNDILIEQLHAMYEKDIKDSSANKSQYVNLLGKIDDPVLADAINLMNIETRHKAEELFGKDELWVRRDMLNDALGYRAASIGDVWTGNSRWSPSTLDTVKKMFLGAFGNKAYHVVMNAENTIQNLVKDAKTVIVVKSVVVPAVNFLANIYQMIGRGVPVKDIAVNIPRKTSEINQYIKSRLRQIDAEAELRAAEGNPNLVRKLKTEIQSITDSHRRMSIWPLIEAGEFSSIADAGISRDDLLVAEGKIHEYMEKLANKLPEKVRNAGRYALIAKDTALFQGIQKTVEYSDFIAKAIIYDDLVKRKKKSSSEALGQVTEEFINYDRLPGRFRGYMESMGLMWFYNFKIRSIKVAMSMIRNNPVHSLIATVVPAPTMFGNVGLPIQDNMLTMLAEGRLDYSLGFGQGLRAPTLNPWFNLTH

Q: Does “TCCAAAAGAAGCGGAGCTTC [P2 20-mer 5-Iodo-dU at -11]” bind (5-Iodo-dU at -11 (loop centre), UV crosslinking as wild type, variant of wild-type P2 promoter 20-mer)?
A: Result: binds

Q: Does “TCCAAAAGAAGCGGAGCTTC [P2 20-mer 5-Iodo-dU at +3]” bind (5-Iodo-dU at +3, UV crosslinking as wild type, variant of wild-type P2 promoter 20-mer)?
A: Result: binds

Q: Does “TCCAAAAGAAGCGGAGCTTC [wild-type P2 promoter 20-mer]” bind (wild-type affinity)?
A: Result: binds
